Results of single-concentration screens

Measurements from “University of Dundee, Small-Polar-MMV Screening Library” (2021), ChEMBL document CHEMBL3988442.

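Growth of Mycobacterium tuberculosis over 4 days (cholesterol / DPPC medium with tyloxapol); the read-out is not stated. Tested at 50 µM. The record gives no direction; compounds that gave an IC50 in retests scored well above the rest, so higher reads as more growth inhibition. Size under these conditions: about 69,000 compounds, about 370 of them at 50% or above in at least one test.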

The filed quantity is “Percent Effect” (%).
The controls that fix the scale are not given in the record; negative values are as filed.
The compounds are a random part of those screened.
Two or more numbers in one place are separate tests of the same structure; such repeats can differ widely.

SMILES,Percent Effect
O=S1(=O)NC(C2CCN(Cc3ccncc3)CC2)Nc2ccccc21 (centres unmarked),-0.9061%
O=C(O)C(F)(F)F.O=C(O)C(F)(F)F.[H][C@@]12CCCO[C@]1([H])[C@H](N(C)C(C)C)CN(Cc1scnc1C)C2,-4.057%
O=C(NCc1cc2ccccc2s1)c1cc(CN2CCCC(O)C2)on1 (centres unmarked),-7.309%
O=C(O)C(F)(F)F.O=C(O)C(F)(F)F.[H][C@@]12CN(Cc3cccs3)CCC[C@]1(C(=O)OCC)CN(C(C)C)C2,-5.287%
CC(NC(=O)N1CCCN(C)CC1)c1ccc2c(c1)OCCO2 (centres unmarked),-16.8%
CNc1cncc(C2CCCN2C(=O)CCn2ccnc2C(C)C)n1 (centres unmarked),5.28% and -12.82%
CCc1ncc(CN2CCC(Oc3ccccc3OC)CC2)cn1,2.26%
CC(C)S(=O)(=O)NCC1CCCN(C(=O)c2ccc3c(c2)OCCO3)C1 (centres unmarked),-3.602%
COCc1nc(C(=O)NS(=O)(=O)c2cc(F)ccc2F)cs1,-26.97%
CN1CCN(Cc2cn3c(n2)CN(C(=O)N2CCCC2)CC3)CC1,13.02%
COCC(O)CN(C)C(=O)NC1CCN(Cc2ccccn2)CC1 (centres unmarked),-39.62%
Cc1ccc(-n2cnc(Cl)c2CO)cc1,-20.27% and -7.345%
CC(C)N1CCOC(CC(=O)N2CCCN(c3ccc(F)cc3)CC2)C1 (centres unmarked),-19.16%
CC(C)CCN1CC[C@H](c2nnc(Cc3c[nH]c4ccccc34)o2)C1,-21.35%
CCn1c(Nc2ccccc2OC)nc2c(C)nn(C)c2c1=O,-7.574%
CC(C(=O)Nc1ccc(C#N)cc1)N1CCc2ccccc21 (centres unmarked),17.88%
O=C(O)C(F)(F)F.[H][C@@]12CCN(CC3CC3)C[C@@]1([H])O[C@H](c1nc(C)no1)C2,-10.58%
COc1cc(C2Nc3cc(Cl)ccc3C3=NCCN32)cc(OC)c1OC (centres unmarked),-6.287%
NC(=O)c1cc2c(nc1Oc1cccc(CN3CCCC3)c1F)CCC2,0.6623%
CN(CC(=O)N1CC(C)(C)[C@](O)(C2CC2)C1)Cc1cccnc1,1.416%
Cc1cnn(C2CN(CC(=O)NCCc3ccccc3)C2)c1,2.845%
CNC(=O)c1cn(C(C)(C)C)c2ncccc12,-17.28%
CS(=O)(=O)N1CCC(c2nnc3ccc(C(=O)N4CCCC4)cn23)C1 (centres unmarked),-14.86%
Cl.c1cncc(CNCc2cccs2)c1,12.48%
Cc1cnn(CC2CCCN2C(=O)c2ccc(F)cc2Cl)c1 (centres unmarked),-3.342%
O=C(O)c1ccc(COc2cccc(Cl)c2)s1,-3.195%
Cc1ccc(NC(=O)NCC2(N3CCOCC3)CCSC2)c(C)c1 (centres unmarked),-4.548%
CN1CCC(N2CCOC[C@H](OCC(=O)N(C)C)C2)CC1,6.151%
O=C(Cn1ccc(=O)[nH]c1=O)NCc1cccnc1OCC(F)(F)F,-15.15%
CCNc1ncc(C(=O)N2Cc3nc(C)[nH]c(=O)c3C2)cn1,-9.546%
CN(C)c1ccccc1CN1CCC(N2CCCC2=O)CC1,-31.3%
CCc1cc(CN(C)C(=O)c2cc(=O)[nH]c(=O)[nH]2)on1,-1.239%
Cc1cnn(C2CCCN(C(=O)c3cnc4ccccc4n3)C2)c1 (centres unmarked),-25.34%
O=C(Nc1ncnc2c1CCC2)c1cccc(F)c1,-39.27%
COc1cc(C#N)ccc1OC12CCCN(CC1)C2 (centres unmarked),-1.666%
COc1cc(Br)c(S(=O)(=O)NC(=O)C(C)OC)cc1OC (centres unmarked),9.302%
CS(=O)(=O)NC1CCN(C(=O)CCC2CCCO2)CC1 (centres unmarked),-10.57%
Cc1nc(CN(C)C2CCN(Cc3nc4ccccc4s3)C2)no1 (centres unmarked),15.55%
CCc1nccn1-c1cncc(C2CCCN2Cc2ccccc2)n1 (centres unmarked),-9.331%
Cc1cccc2sc(NC(=O)CN3CCCC(O)(CO)C3)nc12 (centres unmarked),-16.63%
O=C(NCC1CCCO1)c1c(-n2cnnn2)sc2c1CCC2 (centres unmarked),0.06484%
Cc1cc(C)n(Cc2ccc(C(=O)N3CCOCC3(C)C)cc2)n1,-4.883%
Cc1cnn(CCNCc2ccccc2OCc2ccccn2)c1,-13.71%
CCC[C@H]1CN(C(=O)CCn2ccccc2=O)C[C@@H]1NS(C)(=O)=O,-4.319%
[H][C@]12CCN(C(=O)c3ccccn3)CC[C@@]1([H])S(=O)(=O)N(CC(C)C)C2,27.48%
CCn1cnnc1C1CCN(C(=O)c2ccnc(N(C)C)c2)CC1,-2.803%